Source: PubChem BioAssay AID540276 (National Center for Advancing Translational Sciences (NCATS), 2011)
Screen size: about 300,000 compounds; about 5,400 (1.8%) were called active. The shares of active, inactive and inconclusive entries below differ from those in the screen. The call rests on the fitted dose curve; tested in HEK293 cells. Potencies beside an inconclusive call are fits to weak or partial responses and may not hold up.

Assay: qHTS for inhibitors of binding or entry into cells for Marburg Virus
Settings: Marburg virus pseudotyped entry inhibition, cell reporter; activity change, negative = inhibition: at 37.8 µM (top of the series) unless noted
On the % scale 0 is the no-effect control and ±100 the full control effect; potency means the concentration at half of the fitted maximal effect.

Compound	Potency	activity change, negative = inhibition
O=C(NC1=NCCS1)C1CC(=O)N(c2ccc(F)cc2)C1 (stereo not given)	inconclusive: 0.562 µM [activator, partial curve, poor fit]	–
CCCCOc1ccc(CN2CCN(CC)CC2)cc1	–	inactive: -1.48%
CC(=O)Nc1ccc(C2=NNC(=NCC3CCCO3)SC2)cc1 (stereo not given)	–	inactive: -3.53%
Cc1ccc(CN(C(=O)c2ccc(C(C)(C)C)cc2)c2ccccn2)o1	inconclusive: 3.16 µM [activator, single point]	–
CCn1c2ccccc2c2cc(/C=N/n3c(C)nnc3C)ccc21	inconclusive: 29.1 µM [inhibitor, single point]	–
CCN(C(=S)Nc1cccc(C)c1)c1ccccc1	inconclusive: 5.62 µM [activator, single point]	–
CC(C)(C)c1ccc(C(=O)Nc2ccc(CC(=O)O)cc2)o1	inconclusive: 1.83 µM [inhibitor, partial curve, poor fit]	–
Cc1cccc(N2C(=O)C(Oc3ccc(Cl)cc3Cl)C2C=O)c1C (stereo not given)	inconclusive: 2.06 µM [activator, partial curve, poor fit]	–
Cc1ccccc1N(CC(=O)NCc1ccccc1)C(=O)CCC(=O)Nc1nccs1	–	inactive: -2.07%
CCCn1ncc(CN2CCC(C(=O)Nc3cccc(-c4cccc(F)c4)c3)CC2)c1C	active: 2.51 µM	–
CCN(CC)CCN(C(=O)c1ccc2c(c1)OCCO2)c1nc2ccc(C)cc2s1	inconclusive: 35.5 µM [inhibitor, single point]	–
Cc1cc(C(=O)Nc2ccc(S(=O)(=O)N3CCCC3)cc2)cs1	–	inactive: -26%
CN1CCC(N(C)c2nc(-c3ccc([N+](=O)[O-])cc3)nc3ccccc23)CC1	active: 11.2 µM	–
NNC(=O)CS(=O)(=O)CS(=O)(=O)CC(=O)NN	–	inactive: 20.2%
C=CCn1c(SCC(=O)Nc2sccc2C(N)=O)nc2ccc(Cl)cc2c1=O	inconclusive: 20 µM [inhibitor, single point]	–
COc1ccc2[nH]cc(CCN=C(NC(=O)c3ccccc3F)Nc3nc(C)cc(C)n3)c2c1	inconclusive: 5.01 µM [inhibitor, single point]	–
C=C(C)CN1C(=O)C2(OCCO2)c2ccccc21	–	inactive: -12.2% [at 46.1 µM]
CC(C)Cn1c(SCc2nc3ccccc3c(=O)[nH]2)nc2ccccc2c1=O	–	inactive: -8.5%
CC(=O)Nc1cccc(C(=O)OCC(=O)NC(=O)Cc2ccccc2)c1	inconclusive: 1.78 µM [inhibitor, partial curve, poor fit]	–
O=C(c1ccco1)c1cn(Cc2ccccc2Cl)c2ccccc12	inconclusive: 18.3 µM [inhibitor, partial curve, poor fit]	–
O=C(Nc1ccc(-c2nc3ccccc3o2)cc1)c1cccnc1	inconclusive: 0.316 µM [activator, full curve, poor fit]	–
CCOC(=O)Cc1csc(NC(=O)/C=C/c2ccccc2Cl)n1	inconclusive: 35.5 µM [inhibitor, single point]	–

Taken from the listing (15 entries):
Compound	Potency	activity change, negative = inhibition
CCCCOc1ccc(CN2CCN(CC)CC2)cc1	–	inactive: -1.48%
CC(=O)Nc1ccc(C2=NNC(=NCC3CCCO3)SC2)cc1 (stereo not given)	–	inactive: -3.53%
Cc1ccc(CN(C(=O)c2ccc(C(C)(C)C)cc2)c2ccccn2)o1	inconclusive: 3.16 µM [activator, single point]	–
CCn1c2ccccc2c2cc(/C=N/n3c(C)nnc3C)ccc21	inconclusive: 29.1 µM [inhibitor, single point]	–
CCN(C(=S)Nc1cccc(C)c1)c1ccccc1	inconclusive: 5.62 µM [activator, single point]	–
CC(C)(C)c1ccc(C(=O)Nc2ccc(CC(=O)O)cc2)o1	inconclusive: 1.83 µM [inhibitor, partial curve, poor fit]	–
Cc1cccc(N2C(=O)C(Oc3ccc(Cl)cc3Cl)C2C=O)c1C (stereo not given)	inconclusive: 2.06 µM [activator, partial curve, poor fit]	–
Cc1ccccc1N(CC(=O)NCc1ccccc1)C(=O)CCC(=O)Nc1nccs1	–	inactive: -2.07%
CCCn1ncc(CN2CCC(C(=O)Nc3cccc(-c4cccc(F)c4)c3)CC2)c1C	active: 2.51 µM	–
CCN(CC)CCN(C(=O)c1ccc2c(c1)OCCO2)c1nc2ccc(C)cc2s1	inconclusive: 35.5 µM [inhibitor, single point]	–
Cc1cc(C(=O)Nc2ccc(S(=O)(=O)N3CCCC3)cc2)cs1	–	inactive: -26%
CN1CCC(N(C)c2nc(-c3ccc([N+](=O)[O-])cc3)nc3ccccc23)CC1	active: 11.2 µM	–
NNC(=O)CS(=O)(=O)CS(=O)(=O)CC(=O)NN	–	inactive: 20.2%
C=CCn1c(SCC(=O)Nc2sccc2C(N)=O)nc2ccc(Cl)cc2c1=O	inconclusive: 20 µM [inhibitor, single point]	–
COc1ccc2[nH]cc(CCN=C(NC(=O)c3ccccc3F)Nc3nc(C)cc(C)n3)c2c1	inconclusive: 5.01 µM [inhibitor, single point]	–

Next structures.

Compound	Potency	activity change, negative = inhibition
CCSc1nn2c(=O)c3ccccc3nc2s1	–	inactive: 4.08%
CN(Cc1ccno1)Cc1cn(Cc2ccccc2)nc1-c1ccc2c(c1)OCO2	inconclusive: 35.5 µM [inhibitor, single point]	–
Cc1c(C(=O)N/N=C/c2cccnc2)sc(=S)n1C	inconclusive: 23.1 µM [activator, partial curve, poor fit]	–
Cc1ccccc1NC(=O)Cn1c(=O)n(CCCC(=O)NCc2ccc3c(c2)OCO3)c(=O)c2ccccc21	inconclusive: 17.8 µM [activator, single point]	–
CC1CN(C(=O)N2CCOCC2)CCN1C(=O)N1CCOCC1 (stereo not given)	inconclusive: 17.8 µM [activator, partial curve, poor fit]	–
CCN(CC)CCCNc1nc2ccccc2c2[nH]c3ccc(OC)cc3c12	inconclusive: 11.2 µM [inhibitor, partial curve, poor fit]	–
Cc1cccc(-c2nn(-c3ccccc3)cc2C(=O)Nc2cccc(S(=O)(=O)NC3=NCCC3)c2)c1	–	inactive: -23.5%
O=C(c1cc2sccc2n1Cc1ccccc1)N1CCCc2ccccc21	inconclusive: 35.5 µM [inhibitor, single point]	–
COC(=O)c1ccc2c(c1)C(C)(C)C(/C=C/c1ccc(OC)c(OC)c1OC)=[N+]2C	inconclusive: 4.47 µM [inhibitor, full curve, poor fit]	–
COc1cc2c(cc1OC)C1=NC(=O)CN1C(SCc1ccccc1)=N2	inconclusive: 0.112 µM [activator, full curve, poor fit]	–
COc1ccc(OC)c(CN2CCN(C(=O)c3cc(S(=O)(=O)Nc4ccccc4OC)ccc3C)CC2)c1	inconclusive: 15.8 µM [inhibitor, partial curve]	–
c1ccc2nc3c(cc2c1)CCCCCC3	–	inactive: 0.951%
CCC(C(=O)NC(C)CCc1ccccc1)n1nc(C)n2c(cc3occc32)c1=O (stereo not given)	–	inactive: -23%
Cc1ccccc1N(C(=O)c1snc(C(N)=O)c1N)C(C(=O)NC1CCCCC1)c1ccc(O)cc1 (stereo not given)	inconclusive: 14.1 µM [inhibitor, partial curve, poor fit]	–
CCN(CC(=O)Nc1c(F)cccc1F)C(=O)c1cccc(S(=O)(=O)N(C)c2ccccc2)c1	inconclusive: 22.4 µM [inhibitor, single point]	–
O=C(c1ccncc1)N1N=C(C2CCCCC2)CC1(O)C(F)(F)F (stereo not given)	inconclusive: 3.55 µM [activator, single point]	–
COc1ccccc1C(=O)NC(C)C(c1cccs1)N1CCOCC1 (stereo not given)	inconclusive: 2.06 µM [inhibitor, partial curve, poor fit]	–
CCN(CC)CCCNC(=S)Nc1ccc(Br)cc1	inconclusive: 11.2 µM [inhibitor, partial curve]	–
COc1ccc(-c2csc3nc(C)nc(N4CCN(c5ccc(C(C)=O)cc5)CC4)c23)cc1OC	inconclusive: 3.55 µM [inhibitor, full curve]	–
O=C1NC(=O)/C(=C\c2ccc(Sc3ccc(Cl)cc3)o2)N1	inconclusive: 6.31 µM [activator, single point]	–
Cc1ccc(NC(=O)COc2ccc(N3CC(C(N)=O)CC3=O)cc2)c(C)c1 (stereo not given)	inconclusive: 8.91 µM [activator, partial curve, poor fit]	–
Cc1ccc(S(=O)(=O)Nc2ccc(N(C)S(=O)(=O)c3ccc(C)cc3)cc2)cc1	inconclusive: 11.2 µM [inhibitor, partial curve, poor fit]	–

Compound	Potency	activity change, negative = inhibition
CCOc1ccc(C(=O)C(C)OC(=O)Cn2c(C)csc2=O)cc1 (stereo not given)	inconclusive: 2 µM [activator, single point]	–
Cc1ccccc1Cn1nc(C)c(NC(=O)c2sc3ccccc3c2Cl)c1C	inconclusive: 17.8 µM [inhibitor, single point]	–
CSc1ccc(C(=O)C2CCCN(Cc3cccc4nccnc34)C2)cc1 (stereo not given)	inconclusive: 17.8 µM [inhibitor, single point]	–
CN1CCN(c2ccc(S(=O)(=O)N3CCCCC3)cc2NC(=O)c2ccc(F)cc2F)CC1	inconclusive: 14.1 µM [inhibitor, single point]	–
Cc1ccc(-c2cc(C(=O)N3CCOCC3)c3ccccc3n2)cc1	–	inactive: -0.832% [at 46.1 µM]
COc1cccc2c(=O)cc(C)n(CC(=O)Nc3ccc(C)c(C)c3)c12	inconclusive: 35.5 µM [inhibitor, single point]	–
O=C(NCc1csc(-c2ccccc2)n1)c1ccco1	–	inactive: 5.45%
O=C(CSc1nc2nn(-c3ccccc3)c(=O)c-2c2n1CCCCC2)Nc1ccc(OC(F)F)cc1	inconclusive: 1.41 µM [inhibitor, partial curve, poor fit]	–
Cc1ccc(-c2nc(CS(=O)CC(=O)NCCCc3ccccc3)c(C)o2)cc1 (stereo not given)	–	inactive: -28.1% [at 46.1 µM]
CC1(C)CC(=O)C(C=Nc2ccc(NC3=C(C#N)C(=O)CC(C)(C)C3)cc2)=C(O)C1	inconclusive: 0.562 µM [inhibitor, full curve, poor fit]	–
CC(=O)N/C(=C\c1cccs1)C(=O)O	inconclusive: 2.51 µM [activator, partial curve, poor fit]	–
CS(=O)(=O)N1CCN(c2ccc([N+](=O)[O-])c(NCc3ccc(Cl)cc3)c2)CC1	inconclusive: 14.1 µM [inhibitor, single point]	–
O=C(Nc1ccccn1)c1ccc(COc2ccccc2Cl)o1	inconclusive: 0.0052 µM [activator, full curve, poor fit]	–
O=S(=O)(c1ccccc1)N1CCN(C2CCN(Cc3ccccc3)CC2)CC1	–	inactive: -6.57%
CC(O)CNc1nc2c(c(=O)n(C)c(=O)n2C)n1C/C=C/c1ccccc1 (stereo not given)	–	inactive: -9.58%
Cc1cc(C)cc(NC(=O)Nc2ccccc2N2CCCCC2)c1	inconclusive: 6.31 µM [inhibitor, single point]	–
O=C(O)c1ccc(/C=C/C(=O)c2ccc3c(c2)OCCCO3)cc1	inconclusive: 10 µM [inhibitor, partial curve, poor fit]	–
Cc1ncoc1C(=O)N1CCCC(C(=O)c2ccc(C(F)(F)F)cc2)C1 (stereo not given)	inconclusive: 35.5 µM [activator, single point]	–
Cc1ccc(-c2nc3ccccc3[nH]2)s1	active: 12.6 µM	–
CCCCSc1nnc(CNC(=O)C23CC4CC(CC(C4)C2)C3)n1Cc1ccccc1	inconclusive: 0.316 µM [activator, partial curve, poor fit]	–
Cc1ccc(C)c(Cn2nnc3c(=O)[nH]c(C4CCN(S(=O)(=O)c5ccc(S(=O)(=O)NC6CC6)cc5)CC4)nc32)c1	inconclusive: 35.5 µM [inhibitor, single point]	–
